The record followed here is the supplement of paper PMC12823440, “Inhibitors supercharge kinase turnover through native proteolytic circuits” (Nature, 2025).

Protein sequences, listed by entry. Tags and fused reporters are not part of them.
UniProt P29317, whole entry: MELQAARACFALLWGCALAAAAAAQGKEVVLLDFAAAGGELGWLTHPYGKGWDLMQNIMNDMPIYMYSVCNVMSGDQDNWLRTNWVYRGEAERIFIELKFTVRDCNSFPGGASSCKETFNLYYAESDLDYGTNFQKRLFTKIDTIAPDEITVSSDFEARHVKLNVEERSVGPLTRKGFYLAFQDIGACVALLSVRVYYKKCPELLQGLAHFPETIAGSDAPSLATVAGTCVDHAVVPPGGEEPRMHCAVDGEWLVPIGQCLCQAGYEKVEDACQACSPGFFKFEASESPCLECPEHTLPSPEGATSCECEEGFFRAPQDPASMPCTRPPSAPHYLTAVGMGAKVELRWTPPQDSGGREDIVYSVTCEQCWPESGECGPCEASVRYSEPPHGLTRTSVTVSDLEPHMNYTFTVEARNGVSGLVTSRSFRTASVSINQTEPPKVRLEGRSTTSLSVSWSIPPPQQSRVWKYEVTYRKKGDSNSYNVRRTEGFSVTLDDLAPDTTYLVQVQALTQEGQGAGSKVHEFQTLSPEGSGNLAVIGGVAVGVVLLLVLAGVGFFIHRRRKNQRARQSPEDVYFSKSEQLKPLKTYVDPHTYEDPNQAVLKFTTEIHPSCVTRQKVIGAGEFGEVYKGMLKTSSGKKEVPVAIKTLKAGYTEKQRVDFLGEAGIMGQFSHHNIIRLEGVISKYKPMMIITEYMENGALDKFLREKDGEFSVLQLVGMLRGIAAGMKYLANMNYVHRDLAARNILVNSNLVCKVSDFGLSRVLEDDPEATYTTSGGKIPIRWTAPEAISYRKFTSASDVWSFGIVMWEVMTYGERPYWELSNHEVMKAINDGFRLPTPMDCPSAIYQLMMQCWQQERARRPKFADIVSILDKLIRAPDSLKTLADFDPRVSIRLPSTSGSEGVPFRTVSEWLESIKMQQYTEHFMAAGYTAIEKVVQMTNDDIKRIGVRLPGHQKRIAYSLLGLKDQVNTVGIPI

SMILES strings stand for the structures. Where a name gives a salt, the structure may show the parent alone. The list shows a part of the results. Hit calls seldom repeat between salt and free forms of one compound.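 In K562 cells expressing nanoluciferase-fused kinases, luminescence was recorded at 4 h intervals between 2 and 18 h, normalized as percent of control with DMSO at 100% and a positive control at 0%. A significant (2 sigma) signal drop marks a time point as decreased. The authors' rule for a hit is not shown and takes in more than the number of time points.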

In the experiment the target is EPHA2 (UniProt P29317). In words: kinase-Nluc reporter destabilization hit call (1 = scored as downregulated) (binary); higher = compound decreases kinase abundance. Conditions: K562; 2-18 h.
In the case of `CC1=C[C@]23C(=O)[C@@H](C=C(CO)[C@@H](O)[C@]2(O)[C@H]1O)[C@H]1[C@@H](C[C@H]3C)C1(C)C` [Ingenol] (10 µM), the “kinase-Nluc reporter destabilization hit call” value was inactive: 0. As for `C=C[C@H]1CN2CC[C@]3(C(=O)Nc4ccccc43)[C@@H]2C[C@@H]1/C(=C\OC)C(=O)OC` [Corynoxeine] (2 µM), the “kinase-Nluc reporter destabilization hit call” value was inactive: 0. As for `O=C(O)c1sc2cc(Cl)ccc2c1Cl` (10 µM), the figure is inactive: 0; as for `C[C@H]1CC[C@]2(NC1)O[C@H]1C[C@H]3[C@@H]4CC[C@H]5C[C@@H](O)CC[C@]5(C)[C@H]4CC[C@]3(C)[C@H]1[C@@H]2C` [Tomatidine (hydrochloride)] (10 µM), inactive: 0; as for `O=C1C=CC[C@@H]2[C@H]3CCCN4CCC[C@@H](CN12)[C@@H]34` [Sophocarpine (monohydrate)] (2.5 µM), inactive: 0. As for `Cc1n[nH]cc1-c1cc2nc([C@@H]3CC4CCN3CC4)[nH]c(=O)c2s1` [Simurosertib] (2.5 µM), the figure is inactive: 0. The result for `O=C(N[C@@H](COc1ccc2[nH]c(=O)[nH]c2c1)c1ccccc1)c1cccn(Cc2ccc(F)c(F)c2)c1=O` (2.5 µM) reads inactive: 0; that for `O=C(/C=C/c1ccccc1)OC[C@H]1O[C@@H](O[C@@H]2OC=C[C@H]3[C@H](O)[C@@H]4O[C@]4(CO)[C@@H]23)[C@H](O)[C@@H](O)[C@@H]1O` [Picroside I] (10 µM), inactive: 0. On to `C[C@@H]1CC[C@H]2[C@@H](C)C(=O)O[C@@H]3O[C@@]4(C)CC[C@@H]1[C@]32OO4` [Artemisinin] (10 µM), for which the “kinase-Nluc reporter destabilization hit call” value was inactive: 0. With `N#CC(C#N)=Cc1ccc([N+](=O)[O-])c(O)c1` (10 µM), the “kinase-Nluc reporter destabilization hit call” value was inactive: 0.

In the case of `C[C@H](CCC(=O)O)C[C@H](C)C[C@H](C)C(=O)/C=C(\O)[C@H](C)C[C@H](C)C/C=C/[C@@H](C)[C@@H](O)[C@@H](C)[C@@H](O)C[C@@H]1CC[C@@](C)([C@H]2CC[C@@](C)([C@@H](C)O)O2)O1` [Ionomycin (calcium)] (2.5 µM), the “kinase-Nluc reporter destabilization hit call” value was active: 1.

Take `CC1C(=O)OC2C(O)C34C5OC(=O)C3(OC3OC(=O)C(O)C34C(C(C)(C)C)C5O)C12O` (centres undefined) [Ginkgolide C] (10 µM): the “kinase-Nluc reporter destabilization hit call” value was inactive: 0. The result for `Cn1cc(C2=C(c3cn(C4CCN(Cc5ccccn5)CC4)c4ccccc34)C(=O)NC2=O)c2ccccc21` [Enzastaurin] (10 µM) reads inactive: 0. As for `O=c1[nH]c2ccccc2n1C1CCN(Cc2ccc(-c3[nH]c4cc5ncnc5cc4nc3-c3ccccc3)cc2)CC1` [AKT inhibitor VIII] (2.5 µM), the figure is inactive: 0; as for `CCN1CCN(C(=O)Cc2ccc(Nc3ncc(F)c(Nc4ccc(C(=O)Nc5ccccc5Cl)cc4)n3)cc2)CC1` (2.5 µM), inactive: 0. As for `C=CC(=O)N[C@H]1C=C(C)c2c(-c3cnc4ccccc4c3)c3c(N)ncnc3n2C1` (10 µM), the figure is inactive: 0. For `CC(C)(C)c1cc(C=C(C#N)C#N)cc(Br)c1O` (2.5 µM), the “kinase-Nluc reporter destabilization hit call” value is inactive: 0. The result for `CCCCNc1nc(N)c2[nH]c(=O)n(Cc3ccc(C)nc3)c2n1` (10 µM) reads inactive: 0; that for `C=CC(=O)Nc1ccc2[nH]c(=O)n(C3CCN(Cc4ccc(-c5nc6cc[nH]c(=O)c6cc5-c5ccccc5)cc4)CC3)c2c1` [Borussertib] (10 µM), inactive: 0; that for `COc1ccc(N(C(=O)Oc2c(C)cccc2C)c2ccnc(Nc3ccc(N4CCN(C)CC4)cc3)n2)c(OC)c1` (2.5 µM), inactive: 0. Take `COc1ccc2c(c1)[nH]c1c(C)nccc12` [Harmine] (10 µM): the “kinase-Nluc reporter destabilization hit call” value is inactive: 0. For `O=c1cc(O)c2ccccc2o1` [4-Hydroxycoumarin] (10 µM), the “kinase-Nluc reporter destabilization hit call” value was inactive: 0. On to `CC(=O)c1c(O)c(C)c(O)c(Cc2c(O)c3c(c(C(=O)/C=C/c4ccccc4)c2O)OC(C)(C)C=C3)c1O` [Rottlerin] (2 µM), for which the “kinase-Nluc reporter destabilization hit call” value is inactive: 0.

Take `N#CC(C#N)=Cc1ccc(O)c(O)c1` [Tyrphostin 23] (10 µM): the “kinase-Nluc reporter destabilization hit call” value was inactive: 0. For `C/C(O)=C(\C#N)C(=O)Nc1cc(Br)ccc1Br` (10 µM), the “kinase-Nluc reporter destabilization hit call” value is inactive: 0.

As for `Cc1ccccc1-n1c(Cn2ncc3c(N)ncnc32)nc2cccc(C)c2c1=O` (10 µM), the “kinase-Nluc reporter destabilization hit call” value was inactive: 0. For the compound `COc1cc2c(cc1F)C(c1ccccc1Cl)=Nc1c(n[nH]c1C)N2` (0.5 µM), the “kinase-Nluc reporter destabilization hit call” value is inactive: 0. In the case of `COc1ccc2c(c1)/C(=C/c1cnc[nH]1)C(=O)N2` (2.5 µM), the “kinase-Nluc reporter destabilization hit call” value is inactive: 0. For the compound `O=[N+]([O-])/C=C/c1ccc2c(c1)OCO2` (2.5 µM), the “kinase-Nluc reporter destabilization hit call” value was inactive: 0.
